Screen size: about 340,000 compounds; about 170 (0.05%) were called active. The inconclusive results got no clear call from the source; some entries with a clear call stand among them for comparison. Calls come from the whole dose curve; as a rule, active = well fitted inhibition curve with a large enough effect in the signal ratio, with a control signal flat (not every such curve was filed as active); inconclusive = small, poorly fitted or top-dose-only effect, or effect the other way, or a change in a side signal; inactive = flat fitted curve, though single readings scatter; the % refers to the signal ratio. Where the call is inconclusive, the potency comes from a doubtful curve fit.
assay: qHTS Assay to Find Inhibitors of Chronic Active B-Cell Receptor Signaling; details: ABC-DLBCL IkBa-CBG/CBR reporter, luminescence ratio (green luciferase fused to IkBa over red control in TMD8 lymphoma cells), 4 h; activity change, negative = inhibition: at 46.1 µM (top of the series) unless noted;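 for activity change, negative = inhibition: plate controls were basal doxycycline-induced cells for no effect and cells given 10 µM MG132 for full effect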
Outline: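 TMD8 ABC-DLBCL cells carrying doxycycline-inducible green luciferase fused to IkappaBalpha plus unfused red luciferase were exposed to compounds (up to 46 uM) for 4 hrs at 37C. Activity came from the overlap-corrected green/red luminescence ratio.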
Potency is the fitted concentration of half-maximal effect.

| Compound | activity change, negative = inhibition | Potency |
| --- | --- | --- |
| CCCCNC(=O)OCC(CC)NC(=O)OCC(C)C (centres undefined) | inconclusive: 4.24% | – |
| Cc1ccccc1-c1nc(CN(C)C(C)c2ccon2)c(C)o1 (centres undefined) | inconclusive: -0.167% | – |
| CCOC(=O)N1CCC(N2CCCC(C(=O)c3ccc4cc(OC)ccc4c3)C2)CC1 (centres undefined) | – | inconclusive: 22.4 µM [falling, single point] |
| COc1ccc(CNC(=O)CSCc2ccccc2Cl)cc1 | inconclusive: -9.72% | – |
| COc1cccc(NC(=O)Nc2cccs2)c1 | inactive: 1.52% | – |
| COc1cc2oc(=O)ccc2cc1-c1c(OC)ccc2ccc(=O)oc12 | inactive: -2.08% | – |
| O=C(CSc1ccccn1)Nc1nonc1[N+](=O)[O-] | inconclusive: 10.8% | – |
| Cc1cc(C)cc(NC(=O)CN(C)S(=O)(=O)c2cnc[nH]2)c1 | inconclusive: 2.37% | – |
| COc1ccccc1-c1cc(C(=O)N/N=C/c2ccc(C)s2)c2ccccc2n1 | – | inconclusive: 6.51 µM [falling, single point] |
| CC(C)OC(=O)NC(c1ccccc1)C(Cl)(Cl)Cl (centres undefined) | inactive: 1.19% | – |
| O=C(NC(Cc1ccccc1)c1ccc2c(c1)OCCCO2)c1ccccc1 (centres undefined) | inconclusive: 16.4% | – |
| CC12CC3CC(C)(C1)CC(C(=O)NC1=NCCS1)(C3)C2 | inconclusive: 5.74% | – |
| O=C(Cc1c[nH]c2ccccc12)Nc1nnc(C2CC2)s1 | inconclusive: -0.276% | – |
| Cc1cc(Nc2ccccc2)n(-c2ccc(Br)cc2)n1 | inactive: -14.8% | – |
| Cc1cc(O)c(-c2n[nH]c3c2C(c2cccc(O)c2)N(Cc2cccnc2)C3=O)cc1Cl (centres undefined) | – | inconclusive: 0.259 µM [falling, full curve, poor fit] |
| COc1cccc(/C=N/NC(=O)Cn2cnc3c2c(=O)n(C)c(=O)n3C)c1OC | inconclusive: 10.7% | – |
| Cc1cc(C)c2c(=O)n(CC(=O)Nc3cccc(F)c3)sc2n1 | inconclusive: -1.54% | – |
| COc1ccc(NC(=O)c2[nH]c(C)c(C(C)=O)c2C)cc1 | inconclusive: 4.27% | – |
| CCCCC(CC)C(=O)Nc1cc(C(=O)NCCC)ccc1N1CCC2(CC1)CC(c1ccccc1)=NO2 (centres undefined) | inactive: -0.757% | – |
| COc1ccc(N2CCN(C(=O)CN3C(=O)NC(C)(c4ccc5ccccc5c4)C3=O)CC2)cc1 (centres undefined) | inconclusive: -11.3% | – |
| Cc1cc(-c2ccccc2)nc(N/N=C/c2ccco2)n1 | inconclusive: -10.3% | – |

| Compound | activity change, negative = inhibition | Potency |
| --- | --- | --- |
| CCOC(=O)c1sc(-c2ccc(F)cc2)cc1N | – | inconclusive: 29.1 µM [falling, single point] |
| COc1ccc(OC)c(Nc2nc(-c3sc(N)nc3C)cs2)c1 | inactive: -14.9% | – |
| Cc1oc(-c2ccccc2)cc1C(=O)Nc1cccc(/C=C/C(=O)O)c1 | – | inconclusive: 0.112 µM [rising, full curve, poor fit] |
| O=S(=O)(NC1CCC(CNS(=O)(=O)c2c(F)cccc2F)CC1)c1ccc2c(c1)OCCO2 (centres undefined) | inactive: -3.31% | – |
| CCOC(=O)c1ccc(NC(=O)c2cc(S(=O)(=O)N3CCOCC3)ccc2O)cc1 | inconclusive: -14.9% | – |
| CCC1CCc2sc(C(=O)NC3CCN(Cc4ccccc4)CC3)cc2C1 (centres undefined) | inactive: -3.04% | – |
| CCOc1ncccc1C(=O)OCC(=O)Nc1ccc(-c2nc3ccc(C)cc3s2)cc1 | inconclusive: -0.967% | – |
| O=C(Nc1cccc(NC(=O)c2cccc(F)c2)n1)c1cccc(F)c1 | inactive: 5.96% | – |
| COc1ccc(-n2c(-c3cc(-c4ccccc4)sc3N)n[nH]c2=S)cc1 | – | inconclusive: 20 µM [falling, single point] |
| Nc1nccnc1C(=O)N/N=C/c1ccco1 | – | inconclusive: 20 µM [falling, single point] |
| CC(=O)N1CCc2cc(S(=O)(=O)NC(Cc3ccccc3)C(=O)O)ccc21 (centres undefined) | – | inconclusive: 17.8 µM [falling, partial curve, poor fit] |
| COC(=O)c1ccc(NC(=O)C(=O)N2CCCC2)cc1 | – | inconclusive: 16.4 µM [rising, partial curve, poor fit] |
| Cc1ccc(OCc2ccc(C(=O)O)o2)cc1C | – | inconclusive: 25.1 µM [falling, partial curve] |
| Cc1cc(C(=O)OCC(=O)NC(=O)NC(C)(C)C)c(C)o1 | inconclusive: -22.4% | – |
| CCn1c(=O)cc(SCC(=O)NCCCN2CCN(c3ccccc3F)CC2)c2ccccc21 | – | inconclusive: 25.1 µM [falling, single point] |
| Cc1ccc(/C=N/NC(=O)C(c2ccncc2)N2CCOCC2)cc1 (centres undefined) | inactive: 2.29% | – |
| Cc1cc2n(n1)C(c1ccc3c(c1)OCO3)Nc1c(C)cccc1-2 (centres undefined) | inactive: -2.39% | – |
| Cc1ccc(N(CCO)C(=S)Nc2ccccc2)cc1 | inconclusive: 0.12% | – |
| O=C(Nc1cccs1)Nc1cccnc1Cl | inconclusive: -14.4% | – |
| CCNc1nnc(CCn2nc(C)c(Br)c2C)s1 | inconclusive: -0.599% | – |
| CC1CCN(C(=S)c2cn(Cc3cccc(F)c3)c3ccccc23)CC1 | inactive: 0.339% | – |

| Compound | activity change, negative = inhibition | Potency |
| --- | --- | --- |
| O=C(c1ccccc1)c1ccccc1NC(=O)C1CCCN1Cc1ccccc1 (centres undefined) | inconclusive: -2.53% | – |
| CN(C)C(=O)c1ccc2c3c(cccc13)CC2 | inconclusive: 3.85% | – |
| CC(OC(=O)/C(C#N)=C/c1ccco1)C(=O)N(C)c1ccccc1 (centres undefined) | inactive: 1.81% | – |
| O=C(NC1CCCCC1)C(=O)c1c[nH]c2ccccc12 | inconclusive: 285% | – |
| Nn1c(SC/C=C/c2ccccc2)nnc1-c1ccccn1 | inconclusive: 0.231% | – |
| COc1ccc(/C=C2/SC(=S)NC2=O)cc1OCc1ccccc1 | inactive: 12.5% | – |
| NC(=O)c1cc[n+](CC(=O)NC(=O)Nc2ccccc2)cc1 | inconclusive: 5.23% | – |
| CCN(CC(=O)NCCC1=CCCCC1)S(=O)(=O)c1ccccc1 | inconclusive: 2.49% | – |
| CCSc1nc(C)c(C(C)=O)cc1C#N | – | inconclusive: 29.1 µM [falling, single point] |
| COc1ccccc1OC(=O)c1cc(Cl)nc2ccccc12 | inconclusive: 6.89% | – |
| Cc1cccc2nc3c(nc12)CCCC3 | inconclusive: 3.22% | – |
| CCc1ccc(C(=O)Nc2cc3c(cc2Cl)OCCCO3)cc1 | inconclusive: 16.8% | – |
| CC(C)Sc1nc(C(F)(F)F)cc(=O)n1-c1ccccc1 | inconclusive: 7.22% | – |
| O=C(NC(c1ccccc1)c1c(O)ccc2ccccc12)c1ccccc1Cl (centres undefined) | – | inconclusive: 14.1 µM [rising, partial curve, poor fit] |
| CCC1(c2ccccc2)NC(=O)N(CC(=O)NNC(=O)CCN2CCN(c3ccccc3)CC2)C1=O (centres undefined) | inactive: -0.3% | – |
| Cc1ccc(C)c(C(=O)N2CCC(n3nccc3NC(=O)C3CC3)CC2)c1 | inconclusive: 0.684% | – |
| C=CCNC(=O)c1onc(CSc2ccc(Cl)cc2)c1C(=O)O | inconclusive: -9.72% | – |
| COCc1ccc(CN2CCC(n3nccc3NC(=O)CCCc3ccccc3)CC2)o1 | inactive: 0.565% | – |
| O=C(CNc1cccc([N+](=O)[O-])c1)NC(=O)NC1CCCCC1 | – | inconclusive: 23.1 µM [falling, partial curve, poor fit] |
| COc1ccc(NC(=O)N2CCc3ccccc3C2)c(OC)c1 | inconclusive: -1.22% | – |
| CC(Sc1nnc(-c2cccnc2)n1C)C(=O)N1CCOCC1 (centres undefined) | inconclusive: 3.37% | – |

| Compound | activity change, negative = inhibition | Potency |
| --- | --- | --- |
| C[C@H](NCCc1ccc(O)cc1)[C@H](O)c1ccc(O)cc1 | inactive: 0.426% | – |
| COc1ccc2c(c1OC)C(=O)N1N=C(c3ccc(F)cc3)CC21 (centres undefined) | – | inconclusive: 17.8 µM [falling, partial curve] |
| CC(=O)c1nn(-c2ccc(C(F)(F)F)cc2)c(=O)[nH]c1=O | inconclusive: 1.64% | – |
| CCc1ccc(C(=O)CN2C(=O)NC(C)(c3ccc(C)cc3)C2=O)cc1 (centres undefined) | – | inconclusive: 35.5 µM [falling, single point] |
| O=C(Nc1cccc(S(=O)(=O)NC2=NCCC2)c1)c1cnc(Cl)c(Cl)c1 | inconclusive: 7.15% | – |
| O=C(Nc1ccc(N2CCCC2)c(Cl)c1)c1cccs1 | – | inconclusive: 35.5 µM [falling, single point] |
| C=CC[C@@H](CC(=O)N(CCO)Cc1ccccc1)C(=O)NCCOC(=O)[C@@H](CC=C)Cc1ccc(F)cc1 | inconclusive: -16.5% | – |
| O=C(CC1(O)C(=O)c2ccccc2C1=O)c1ccccc1 | inconclusive: -0.183% | – |
| CCOC(=O)/C=C/S(=O)(=O)c1ccc(NC(C)=O)cc1 | – | inconclusive: 3.55 µM [falling, single point] |
| CCCCc1ccc(-c2ccc(Br)cc2)nc1 | – | inconclusive: 0.517 µM [rising, full curve, poor fit] |
| CCc1ccc(Nc2cc(C)nc3ncnn23)cc1 | – | inconclusive: 35.5 µM [falling, single point] |
| Cc1ccc(C(=O)NCC2CCCO2)cc1S(=O)(=O)N1CCCCC1 (centres undefined) | inconclusive: 4.47% | – |
| CC(=O)Oc1cc2c3c(c1)/C(=C1/SC(=S)NC1=O)C(=O)N3C(C)(C)C=C2C | inconclusive: 21.1% | – |
| CCn1c(Cc2ccc(OC)cc2)nnc1SCC(=O)Nc1nc2ccccc2s1 | inconclusive: -5.59% | – |
| CCC(CO)n1c(SCc2cc(=O)oc3cc(C)ccc23)nc2ccccc2c1=O (centres undefined) | inconclusive: -2.77% | – |
| COc1ccc(Cl)cc1NS(=O)(=O)c1ccc2c(c1)NC(=O)CCS2 | inconclusive: -0.371% | – |
| O=C(NCCCc1ccccc1)c1ccc([N+](=O)[O-])cc1Cl | inactive: -14.2% | – |
| Cn1c(N)c(C(=O)CSc2nc(N)cc(=O)[nH]2)c(=O)n(C)c1=O | inactive: 25.8% | – |
| Cc1ncc(CO)c(/C=N/NC(=O)c2ccc(O)cc2)c1O | – | inconclusive: 2.06 µM [falling, partial curve] |
| Cc1cccc(NC(=S)N(Cc2cccs2)Cc2cc3cc(C)ccc3[nH]c2=O)c1 | inconclusive: 2.94% | – |
| CCc1oc2ccccc2c1C(=O)CCN1CCCCC1 | inconclusive: -0.103% | – |

Another view of some results above:
Compound | activity change, negative = inhibition | Potency
CCC(CO)n1c(SCc2cc(=O)oc3cc(C)ccc23)nc2ccccc2c1=O (centres undefined) | inconclusive: -2.77% | –
COc1ccc(Cl)cc1NS(=O)(=O)c1ccc2c(c1)NC(=O)CCS2 | inconclusive: -0.371% | –
O=C(NCCCc1ccccc1)c1ccc([N+](=O)[O-])cc1Cl | inactive: -14.2% | –
Cn1c(N)c(C(=O)CSc2nc(N)cc(=O)[nH]2)c(=O)n(C)c1=O | inactive: 25.8% | –
Cc1ncc(CO)c(/C=N/NC(=O)c2ccc(O)cc2)c1O | – | inconclusive: 2.06 µM [falling, partial curve]
Cc1cccc(NC(=S)N(Cc2cccs2)Cc2cc3cc(C)ccc3[nH]c2=O)c1 | inconclusive: 2.94% | –
CCc1oc2ccccc2c1C(=O)CCN1CCCCC1 | inconclusive: -0.103% | –

Source: PubChem BioAssay AID493014 (National Center for Advancing Translational Sciences (NCATS), 2011)
